Reference: patent US20070218105A1, “Topical Treatment with NGF and DHA in Damaged Corneas” (priority 2004, published 2007)
At least one structure is not confirmed: it was looked up by name or label, or the drawing left a doubt.

Tested on: sub-basal and epithelial nerve bundles
Test: CGRP staining of sub-basal and epithelial nerve bundle area after PRK
Type: in vivo, New Zealand albino rabbits
Details: 8 weeks after PRK

Structure (SMILES): CC/C=C\C/C=C\C/C=C\C/C=C\C/C=C\C/C=C\CCC(=O)O [DHA, docosahexaenoic acid]
- ratio of CGRP-positive sub-basal nerve bundles to total area (FIG. 3A): no statistically significant difference
- ratio of CGRP-positive epithelial nerve bundles to total area (FIG. 3B): no statistically significant difference
